# For at least one entry, the source does not settle the construct or the ends of the probe. Where cells or extracts were used, other partners may take part. For some assays here: Negatives hold for the conditions tested. At least one verdict rests on a figure or table, not on a statement of the authors.
# Protein sequences, listed by entry. Tags and fused reporters are not part of them. Lines headed by an entry give the natural chain unless they say otherwise; changes in a name come on top.
# UniProt P25490, whole entry: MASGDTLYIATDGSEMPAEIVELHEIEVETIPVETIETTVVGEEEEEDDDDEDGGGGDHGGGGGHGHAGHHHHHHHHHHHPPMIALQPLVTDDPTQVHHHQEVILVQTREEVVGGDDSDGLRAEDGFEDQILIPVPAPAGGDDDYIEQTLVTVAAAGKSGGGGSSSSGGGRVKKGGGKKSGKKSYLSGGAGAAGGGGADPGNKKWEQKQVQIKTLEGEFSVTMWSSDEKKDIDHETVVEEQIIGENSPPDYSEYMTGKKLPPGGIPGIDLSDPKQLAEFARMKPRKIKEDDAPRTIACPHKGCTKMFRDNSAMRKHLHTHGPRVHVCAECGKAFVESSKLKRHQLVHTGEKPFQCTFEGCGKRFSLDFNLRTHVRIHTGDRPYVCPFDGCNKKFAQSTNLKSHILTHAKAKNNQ
# UniProt P08047, whole entry: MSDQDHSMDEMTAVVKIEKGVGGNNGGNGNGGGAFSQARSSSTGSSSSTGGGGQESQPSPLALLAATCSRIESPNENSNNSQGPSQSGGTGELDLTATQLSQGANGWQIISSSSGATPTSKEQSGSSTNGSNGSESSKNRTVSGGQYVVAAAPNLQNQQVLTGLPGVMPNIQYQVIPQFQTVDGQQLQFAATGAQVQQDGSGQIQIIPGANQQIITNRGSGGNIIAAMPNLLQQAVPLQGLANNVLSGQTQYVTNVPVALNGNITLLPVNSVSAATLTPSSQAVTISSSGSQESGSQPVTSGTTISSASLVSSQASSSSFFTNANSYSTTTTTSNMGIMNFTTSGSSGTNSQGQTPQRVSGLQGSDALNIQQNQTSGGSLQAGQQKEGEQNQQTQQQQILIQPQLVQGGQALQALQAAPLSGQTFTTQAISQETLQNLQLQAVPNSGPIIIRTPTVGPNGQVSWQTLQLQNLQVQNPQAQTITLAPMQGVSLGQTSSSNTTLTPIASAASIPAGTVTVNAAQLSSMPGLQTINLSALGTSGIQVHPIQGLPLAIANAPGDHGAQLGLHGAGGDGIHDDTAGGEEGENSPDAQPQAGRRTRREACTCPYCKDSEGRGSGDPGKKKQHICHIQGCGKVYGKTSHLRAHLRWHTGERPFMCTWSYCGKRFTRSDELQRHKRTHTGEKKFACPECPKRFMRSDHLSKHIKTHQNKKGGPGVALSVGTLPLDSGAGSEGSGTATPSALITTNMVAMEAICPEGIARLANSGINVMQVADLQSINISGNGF
# UniProt Q02447: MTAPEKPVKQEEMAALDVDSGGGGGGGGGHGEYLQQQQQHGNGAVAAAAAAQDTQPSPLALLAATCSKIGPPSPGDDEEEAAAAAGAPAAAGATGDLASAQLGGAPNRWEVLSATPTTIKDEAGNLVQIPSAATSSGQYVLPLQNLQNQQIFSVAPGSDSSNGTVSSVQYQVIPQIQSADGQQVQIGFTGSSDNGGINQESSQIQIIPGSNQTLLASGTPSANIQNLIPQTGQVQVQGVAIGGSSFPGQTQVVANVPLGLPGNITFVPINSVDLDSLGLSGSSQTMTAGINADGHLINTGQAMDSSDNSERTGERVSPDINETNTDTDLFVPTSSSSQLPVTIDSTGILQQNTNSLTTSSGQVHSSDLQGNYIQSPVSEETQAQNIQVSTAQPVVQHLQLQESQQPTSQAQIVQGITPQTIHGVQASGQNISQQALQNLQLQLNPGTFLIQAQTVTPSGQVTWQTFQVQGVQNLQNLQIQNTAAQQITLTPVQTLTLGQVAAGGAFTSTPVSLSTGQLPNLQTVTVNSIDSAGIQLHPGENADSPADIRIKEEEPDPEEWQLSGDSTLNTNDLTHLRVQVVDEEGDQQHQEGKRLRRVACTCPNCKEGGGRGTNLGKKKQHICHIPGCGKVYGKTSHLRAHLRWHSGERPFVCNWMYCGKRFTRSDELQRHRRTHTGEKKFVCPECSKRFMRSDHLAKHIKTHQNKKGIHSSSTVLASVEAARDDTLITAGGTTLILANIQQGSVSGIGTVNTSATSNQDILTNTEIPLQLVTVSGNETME
# Experiments:
# YY1 = YY1 (UniProt P25490); test: EMSA; details: Myc or Ubwt transfected HeLa nuclear extract, comparable bands; EMSA: 5 ug HeLa nuclear extract, 3 ug poly(dI-dC), 10 min preincubation on ice, 4 nM probe, 30 min; protein in an extract; label: 5'-32P
# Sp1 [1] = molecular target: Sp1 (UniProt P08047); test: competition with a labelled probe; details: 50-fold excess cold mutant did not prevent complexes on N1; EMSA: 5 ug HeLa nuclear extract, 3 ug poly(dI-dC), 10 min preincubation on ice, 4 nM probe, 30 min; protein in an extract; label: unlabeled competitor
# Sp3 [2] = molecular target: Sp3 (UniProt Q02447); test: competition with a labelled probe; details: 50-fold excess cold mutant did not prevent complexes on N1; EMSA: 5 ug HeLa nuclear extract, 3 ug poly(dI-dC), 10 min preincubation on ice, 4 nM probe, 30 min; protein in an extract; label: unlabeled competitor
# Sp1 [3] = molecular target: Sp1 (UniProt P08047); test: EMSA; details: Myc or Ubwt transfected HeLa nuclear extract, no difference, complexes competed by 50x cold wild type; EMSA: 5 ug HeLa nuclear extract, 3 ug poly(dI-dC), 10 min preincubation on ice, 4 nM probe, 30 min; protein in an extract; label: 5'-32P (probe), unlabeled as competitor
# Sp3 [4] = molecular target: Sp3 (UniProt Q02447); test: EMSA; details: Myc or Ubwt transfected HeLa nuclear extract, no difference, complexes competed by 50x cold wild type; EMSA: 5 ug HeLa nuclear extract, 3 ug poly(dI-dC), 10 min preincubation on ice, 4 nM probe, 30 min; protein in an extract; label: 5'-32P (probe), unlabeled as competitor
sequence,measurement,setting,value
AGCAAAATGGCGGCTGTTCCCGAGTCT (double strand) [YY1 intron probe],binding result,YY1,binds
TTTTGGAGAATCCCGCGGGCGCCTACGTCCTCACGGCGAG (double strand) [Sp1_mut (human UbCmut2x)],binding result,Sp1 [1],no binding
same,binding result,Sp3 [2],no binding
"TTTTGGCGCCTCCCGCGGGCGCCCCCCTCCTCACGGCGAG (double strand) [Sp1_wt (hUBC Sp1, -319/-280)]",binding result,Sp1 [3],binds
same,binding result,Sp3 [4],binds

# Source: article PMC6898720
